The results in this text go back to PMC9690818.

The target in this data set is glycated albumin (GA) (UniProt P02768). Briefly: electrochemical aptasensor (CV/EIS), immobilized aptamer. The note with it: linear 1-10000 ug/mL, LOD 0.40 ug/mL (not a Kd), ferri/ferrocyanide redox probe; 5' amino (NH2), coupled to polydopamine nanoparticles on carbon electrode; 1 uM aptamer immobilized on PDA-NP/SPCE, 0.1 M ethanolamine block; readout 5 mM K3[Fe(CN)6], 0.1 M KCl in 1X PBS pH 7.4; temperature not given; commercial protein; single-stranded DNA.

For at least one entry, the source does not settle the construct or the ends of the probe.

“GGTGGCTGGAGGGGGCGCGAACGTTTTTTTTTT [GA aptamer]”: the binding result is “binds”.
